Laboratory results from paper PMC9576510.

Molecular target: T1, Cell death-inducing DNA fragmentation-factor like effector C (CIDEC) (mouse (endogenous in small intestine tissue)) (UniProt P56198)
T1 sequence: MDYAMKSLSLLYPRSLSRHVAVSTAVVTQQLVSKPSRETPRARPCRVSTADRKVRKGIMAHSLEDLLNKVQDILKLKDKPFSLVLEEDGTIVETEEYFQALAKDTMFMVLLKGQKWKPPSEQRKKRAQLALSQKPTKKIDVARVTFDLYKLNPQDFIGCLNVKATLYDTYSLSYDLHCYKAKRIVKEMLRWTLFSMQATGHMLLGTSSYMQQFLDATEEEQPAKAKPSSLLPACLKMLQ
Assay: affinity purification with mass spectrometry; Co-IP/MS: 3 mg small intestine protein supernatant (RIPA) of WT mice, precleared with IgG and protein L-agarose, polyclonal CIDEC antibody 1 h, protein L-agarose at 4 °C overnight, washed twice with RIPA, eluted by boiling, SDS-PAGE, mass spectrum analysis; control IgG precipitate alongside

1-acylglycerol-3-phosphate-O-acyltransferase (AGPAT) (enzyme)
binding: binds

These are yes or no findings as the source states them, for the method shown. In cells and extracts the contact can be indirect. These calls come from enrichment with a bait or labelling near it, and not all partners need be listed.
